Laboratory results reported in PubChem BioAssay AID540256 (National Center for Advancing Translational Sciences (NCATS), 2011).
The campaign covered roughly 300,000 compounds. About 3,700 (1.2%) were called active. Inconclusive means that the source gave no clear call. Such entries were picked first, then a sample of the others. Calls come from the whole dose curve; tested in HEK293 cells. Potencies beside an inconclusive call are fits to weak or partial responses and may not hold up.

assay: qHTS for Inhibitors of binding or entry into cells for Lassa Virus; details: Lassa virus pseudotype entry inhibition, cell reporter; activity change, negative = inhibition: at 37.9 µM (top of the series) unless noted; note: nearly all actives have a fitted effect of over 50% in size
% is set by controls: 0 for no effect and ±100 for the full control effect; potency is the fitted concentration of half-maximal effect.

SMILES | Potency | activity change, negative = inhibition
CSc1ccc(Cl)c(C(=O)NNC(=O)c2cccs2)c1 | inactive | –
Cc1ccc(S(=O)(=O)Nc2cccc(-c3ccc(N4CCC(C)CC4)nn3)c2)s1 | inactive | –
Cc1cc2c(cc1C)N(CC(=O)N1CCCC1)C(=O)CC(c1ccccc1)=N2 | inconclusive: 31.6 µM [activator, single point] | –
COc1cc(NC(=O)CSc2nc(C)cc(C)n2)cc(OC)c1OC | inactive | –
COc1cc2c(C)nc3c(cnn3-c3ccccc3)c2cc1OC | inconclusive: 3.66 µM [activator, partial curve, poor fit] | –
Cc1ccc(C2/C(=C(\O)c3ccc4c(c3)OCCO4)C(=O)C(=O)N2CC2CCCO2)cc1 (stereo not drawn) | inconclusive: 35.5 µM [activator, partial curve, poor fit] | –
O=c1[nH]c2ccc(S(=O)(=O)N3CCCCC3)cc2o1 | inactive | –
O=C1N(C2CCCC2)C[C@@H]2C[C@@H](c3cccn3-c3ccccn3)N3CCC[C@@]123 | inactive | –
O=C(/C=C/c1ccc(Cl)cc1)N1CCN(c2ccc(Cl)cc2[N+](=O)[O-])CC1 | inactive | –
COc1ccc2c(c1OC)C(=O)N1c3ccccc3COC21 (stereo not drawn) | inactive | –
CCCNc1nc2c(c(=O)n(C)c(=O)n2C)n1CCc1ccccc1 | inconclusive: 0.103 µM [activator, full curve, poor fit] | –
COc1ccc(NC(=O)/C(=C/c2ccc(OC(C)=O)c(OC)c2)NC(C)=O)cc1 | inconclusive: 6.51 µM [inhibitor, partial curve] | –
CCOC(=O)C1=C(C)NC(=O)C(C(N)=O)C1c1ccccc1 (stereo not drawn) | inactive | –
Cc1ccc(Oc2ncnc3sccc23)cc1 | inconclusive: 29.1 µM [activator, single point] | –
O=C(COc1ccc(Cl)cc1Cl)Nc1ccc(CN2CCCCC2)cc1 | inactive | –
Cc1ccccc1-c1nnc(SCC(=O)Nc2cccc(C)c2C)o1 | inconclusive: 14.6 µM [activator, single point] | –
CCOc1ccc(NC(=S)NCc2ccco2)cc1 | inactive | –
CCCCCCCC(=O)NNC(=O)CC(=O)Nc1ccccc1C(=O)O | inconclusive: 0.447 µM [activator, partial curve, poor fit] | –
O=C(Nc1ccc(Nc2ccccc2)cc1)c1ccc(Br)o1 | inactive | –
CC(C)c1c(C#N)c(N)nc(SCC(=O)c2cc3ccccc3oc2=O)c1C#N | inconclusive: 35.5 µM [inhibitor, single point] | –
CS(=O)(=O)N1CCN(c2nc(-c3ccccc3)cs2)CC1 | inconclusive: 35.5 µM [activator, single point] | –
CCOc1ccc(CNC(=O)c2ccc3oc(=O)n(Cc4ccccc4)c3c2)cc1 | active: 5.01 µM | –
CC(C)(C)C(=O)Nc1ccc(C(=O)OC2CCCCC2)cc1 | inconclusive: 29.1 µM [inhibitor, single point] | –
COc1ccc(-n2c(SCC(N)=O)nc3sc4c(c3c2=O)CCC4)cc1 | inactive | –
CC(=O)Nc1ccc(SCC(=O)Nc2ccc(Cl)cn2)cc1 | inconclusive: 35.5 µM [activator, single point] | –

SMILES | Potency | activity change, negative = inhibition
CC1(C)Cc2c(sc3c2c(=N)n(Cc2ccco2)c(=O)n3Cc2ccccc2)CO1 | inconclusive: 5.62 µM [inhibitor, partial curve] | –
Cc1[nH]c2ccccc2c1C(=O)CSc1ccc(F)cc1 | inactive | –
CC(=O)c1c(C)oc2ccc(N(C(=O)Oc3ccccc3)S(=O)(=O)c3ccc(Cl)cc3)cc12 | inactive | –
N/C(Cc1cccs1)=N\OC(=O)COc1ccc(Br)cc1Cl | inactive | –
CN(C)c1ccc(/C=C2/C[N+](C)(C)C/C(=C/c3ccc(N(C)C)cc3)C2=O)cc1 | inconclusive: 8.91 µM [inhibitor, partial curve, poor fit] | –
O=C(Nc1nnc(C2CC2)s1)c1cc2ccccc2o1 | inconclusive: 14.1 µM [inhibitor, single point] | –
Cc1[nH]nc2c1C(c1ccc3c(c1)OCO3)C(C#N)=C(N)O2 (stereo not drawn) | inactive | –
CC1CN(C(=O)N2CCC(C(=O)NCCCc3ccccc3)CC2)c2cc(Cl)ccc2O1 (stereo not drawn) | inconclusive: 12.6 µM [inhibitor, partial curve, poor fit] | –
Cc1nnc(Sc2cc(C(=O)NCCCN(C)Cc3ccccc3)c3ccccc3n2)s1 | inactive | –
Cc1ccc(S(=O)(=O)N2CCN(Cc3cc(C(C)C)ccc3O)CC2)cc1 | inconclusive: 25.9 µM [inhibitor, partial curve, poor fit] | –
c1ccc(-c2csc3ncnc(NCCCN4CCOCC4)c23)cc1 | inconclusive: 7.94 µM [inhibitor, partial curve, poor fit] | –
NC(=O)c1ccc(-c2ncc(-c3ccccc3)o2)cc1 | inconclusive: 6.51 µM [inhibitor, partial curve, poor fit] | –
CC(=O)Nc1cccc(NC(=O)c2cc3c(=O)n4cccc(C)c4nc3n2C)c1 | inactive | –
CCC(=O)N1CCCc2cc(S(=O)(=O)N3CCN(C4CCCCC4)CC3)ccc21 | inconclusive: 20 µM [inhibitor, partial curve, poor fit] | –
COc1ccccc1CNC(=O)C(NC(=O)c1ccccc1C)C(C)C (stereo not drawn) | inactive | –
C(=N\Nc1nc(-c2ccccc2)cs1)/c1ccncc1 | inconclusive: 35.5 µM [inhibitor, single point] | –
Cc1ccc(NC2=NCC(=O)N2Cc2ccc3c(c2)OCO3)c(C)c1 | inactive | –
O=C(NC1CCCCC1)N1CCCC(c2nc(-c3cccs3)no2)C1 (stereo not drawn) | inconclusive: 35.5 µM [inhibitor, single point] | –
C=CCSc1nc2ccccc2n1C(=O)/C=C/c1cc(OC)c(OC)c(OC)c1 | active: 9.2 µM | –
Cc1ccc(Cn2nnc3c(=O)n(Cc4cc(C)ccc4C)cnc32)cc1 | inconclusive: 1.3 µM [inhibitor, full curve] | –
C/C(CC(=O)Nc1ccccc1C#N)=N\NC(=O)c1ccncc1 | inactive | –
O=S(=O)(c1ccc2oc3ccccc3c2c1)N1CCCC1 | inconclusive: 2.51 µM [activator, full curve, poor fit] | –
O=C1CC(c2ccccc2)Oc2ccc(Cl)cc21 (stereo not drawn) | inconclusive: 31.6 µM [inhibitor, single point] | –
Cc1nc(C)c(-c2ccc(SCC(=O)Nc3ccccc3)nn2)s1 | inactive | –
CN(C)CCNC(=O)c1sc2nc(-c3ccccc3)cc(C(F)(F)F)c2c1N | inconclusive: 10 µM [inhibitor, partial curve, poor fit] | –

SMILES | Potency | activity change, negative = inhibition
C=CCNc1nc(C(=O)OCC(=O)c2cccc(Br)c2)cs1 | inactive | –
CC1(C)OC(=O)N(c2ccccc2)C12C=Cc1c(ccc3ccccc13)O2 (stereo not drawn) | inactive | –
O=C1CC(Nc2ccc(N3CCOCC3)cc2)C(=O)N1Cc1ccccc1 (stereo not drawn) | inactive | –
Cc1ccc(NC(=O)C2CCCN(S(=O)(=O)c3ccc4[nH]c(=O)ccc4c3)C2)cc1Cl (stereo not drawn) | inactive | –
Cc1ccc(OCC(=O)NC2=NCCS2)cc1 | inconclusive: 3.98 µM [activator, partial curve, poor fit] | –
Cn1cccc1C(=O)C(=O)Nc1cc(Cl)cc(Cl)c1 | inconclusive: 5.62 µM [activator, single point] | –
Cc1nc(N2CCN(Cc3ccc(Cl)cc3)CC2)c2oc3ccccc3c2n1 | inactive | –
COc1ccc2c(c1)c(CC(=O)Nc1ccc(C)cc1)c(C)n2C(=O)c1ccc(Cl)cc1 | inconclusive: 35.5 µM [inhibitor, single point] | –
COc1cccc(NC(=S)N(C)C2CCN(C)CC2)c1 | inconclusive: 14.1 µM [activator, partial curve, poor fit] | –
O=C(CSc1nnc(COc2ccc(Cl)cc2)o1)Nc1ccc(N2CCOCC2)cc1 | inconclusive: 6.31 µM [activator, full curve, poor fit] | –
Cc1cccc(N2CCN(C(c3ccccc3)c3nnnn3CC3CCCO3)CC2)c1C (stereo not drawn) | inconclusive: 12.6 µM [inhibitor, partial curve, poor fit] | –
CC(C)Oc1ccc(/C=C/C(=O)NCC2COc3ccccc3O2)cc1 (stereo not drawn) | inconclusive: 1.26 µM [inhibitor, single point] | –
COc1ccc(C(=O)Nc2c(N)nc(SCC(=O)NCC3CCCO3)[nH]c2=O)cc1OC (stereo not drawn) | – | inconclusive: 4% [activator]
COc1cc2cc(CNc3ccccc3)c(=O)n(CC(=O)Nc3cccc(Cl)c3C)c2cc1OC | inactive | –
COc1cc(NC(=O)Cn2c(=O)n(CC3CCC(C(=O)NCCc4ccccc4)CC3)c(=O)c3ccccc32)cc(OC)c1 (stereo not drawn) | inactive | –
CCCCN1CC(COC)Oc2cccc(F)c2S1(=O)=O (stereo not drawn) | inconclusive: 0.353 µM [activator, full curve, poor fit] | –
COc1cccc(C(=O)N2CCN(CCCc3ccccc3)CC2)c1OC | inconclusive: 8.2 µM [inhibitor, partial curve, poor fit] | –
CCCCNC(=O)C1CCCN(S(=O)(=O)CCC)C1 (stereo not drawn) | inconclusive: 3.55 µM [activator, partial curve, poor fit] | –
CCN(CC)S(=O)(=O)c1ccc(C)c(NC(=O)CN2C(=O)NC3(CCCC3)C2=O)c1 | inconclusive: 5.8 µM [inhibitor, partial curve, poor fit] | –
O=C(Nc1ccncc1)C1CCN(S(=O)(=O)c2ccccc2C(F)(F)F)CC1 | inactive | –
CCOc1ccccc1C1CC(=O)Nc2c1c(=O)n(C)c1ncnn21 (stereo not drawn) | inactive | –
COc1ccc(-n2ncc3c(NCCCOC(C)C)ncnc32)cc1 | inactive | –
COCCNC(=O)C(c1ccc(O)cc1)N(Cc1ccco1)C(=O)CCC(=O)Nc1nccs1 (stereo not drawn) | inconclusive: 6.31 µM [inhibitor, single point] | –

Molecules listed so far that have a Cl atom (14):
SMILES | Potency | activity change, negative = inhibition
CSc1ccc(Cl)c(C(=O)NNC(=O)c2cccs2)c1 | inactive | –
O=C(/C=C/c1ccc(Cl)cc1)N1CCN(c2ccc(Cl)cc2[N+](=O)[O-])CC1 | inactive | –
O=C(COc1ccc(Cl)cc1Cl)Nc1ccc(CN2CCCCC2)cc1 | inactive | –
CC(=O)Nc1ccc(SCC(=O)Nc2ccc(Cl)cn2)cc1 | inconclusive: 35.5 µM [activator, single point] | –
CC(=O)c1c(C)oc2ccc(N(C(=O)Oc3ccccc3)S(=O)(=O)c3ccc(Cl)cc3)cc12 | inactive | –
N/C(Cc1cccs1)=N\OC(=O)COc1ccc(Br)cc1Cl | inactive | –
CC1CN(C(=O)N2CCC(C(=O)NCCCc3ccccc3)CC2)c2cc(Cl)ccc2O1 (stereo not drawn) | inconclusive: 12.6 µM [inhibitor, partial curve, poor fit] | –
O=C1CC(c2ccccc2)Oc2ccc(Cl)cc21 (stereo not drawn) | inconclusive: 31.6 µM [inhibitor, single point] | –
Cc1ccc(NC(=O)C2CCCN(S(=O)(=O)c3ccc4[nH]c(=O)ccc4c3)C2)cc1Cl (stereo not drawn) | inactive | –
Cn1cccc1C(=O)C(=O)Nc1cc(Cl)cc(Cl)c1 | inconclusive: 5.62 µM [activator, single point] | –
Cc1nc(N2CCN(Cc3ccc(Cl)cc3)CC2)c2oc3ccccc3c2n1 | inactive | –
COc1ccc2c(c1)c(CC(=O)Nc1ccc(C)cc1)c(C)n2C(=O)c1ccc(Cl)cc1 | inconclusive: 35.5 µM [inhibitor, single point] | –
O=C(CSc1nnc(COc2ccc(Cl)cc2)o1)Nc1ccc(N2CCOCC2)cc1 | inconclusive: 6.31 µM [activator, full curve, poor fit] | –
COc1cc2cc(CNc3ccccc3)c(=O)n(CC(=O)Nc3cccc(Cl)c3C)c2cc1OC | inactive | –
